According to publication PMC5357305:
These are yes or no findings as the source states them, for the method shown. In cells and extracts the contact can be indirect. Some binding calls cover weakened binding; strength is not graded here. Where a sequence is shown, tags or fusion partners need not be part of it.

Amino acid sequences for entries named in this document (tags omitted).
UniProt Q9GZV5: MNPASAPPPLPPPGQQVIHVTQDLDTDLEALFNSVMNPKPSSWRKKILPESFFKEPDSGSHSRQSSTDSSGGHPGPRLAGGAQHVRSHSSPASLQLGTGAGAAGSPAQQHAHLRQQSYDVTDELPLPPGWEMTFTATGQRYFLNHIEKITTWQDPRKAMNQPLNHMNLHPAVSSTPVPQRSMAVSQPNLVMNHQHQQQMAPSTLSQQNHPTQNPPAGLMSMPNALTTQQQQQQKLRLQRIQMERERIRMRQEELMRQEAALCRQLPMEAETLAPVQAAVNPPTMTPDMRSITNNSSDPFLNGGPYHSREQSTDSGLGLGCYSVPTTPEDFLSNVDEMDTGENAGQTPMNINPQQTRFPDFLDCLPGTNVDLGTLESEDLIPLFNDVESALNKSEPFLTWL

B1: Myc-CDK5RAP2-C1 (residues 1-580) (domain or fragment, UniProt Q96SN8-1 1-580)
chain: MMDLVLEEDVTVPGTLSGCSGLVPSVPDDLDGINPNAGLGNGLLPNVSEETVSPTRARNMKDFENQITELKKENFNLKLRIYFLEERMQQEFHGPTEHIYKTNIELKVEVESLKRELQEREQLLIKASKAVESLAEAGGSEIQRVKEDARKKVQQVEDLLTKRILLLEKDVTAAQAELEKAFAGTETEKALRLRLESKLSEMKKMHEGDLAMALVLDEKDRLIEELKLSLKSKEALIQCLKEEKSQMACPDENVSSGELRGLCAAPREEKERETEAAQMEHQKERNSFEERIQALEEDLREKEREIATEKKNSLKRDKAIQGLTMALKSKEKKVEELNSEIEKLSAAFAKAREALQKAQTQEFQGSEDYETALSGKEALSAALRSQNLTKSTENHRLRRSIKKITQELSDLQQERERLEKDLEEAHREKSKGDCTIRDLRNEVEKLRNEVNEREKAMENRYKSLLSESNKKLHNQEQVIKHLTESTNQKDVLLQKFNEKDLEVIQQNCYLMAAEDLELRSEGLITEKCSSQQPPGSKTIFSKEKKQSSDYEELIQVLKKEQDIYTHLVKSLQESDSINNL
B2: Myc-CDK5RAP2-C2 (residues 1-1271) (domain or fragment, UniProt Q96SN8-1 1-1271)
chain: MMDLVLEEDVTVPGTLSGCSGLVPSVPDDLDGINPNAGLGNGLLPNVSEETVSPTRARNMKDFENQITELKKENFNLKLRIYFLEERMQQEFHGPTEHIYKTNIELKVEVESLKRELQEREQLLIKASKAVESLAEAGGSEIQRVKEDARKKVQQVEDLLTKRILLLEKDVTAAQAELEKAFAGTETEKALRLRLESKLSEMKKMHEGDLAMALVLDEKDRLIEELKLSLKSKEALIQCLKEEKSQMACPDENVSSGELRGLCAAPREEKERETEAAQMEHQKERNSFEERIQALEEDLREKEREIATEKKNSLKRDKAIQGLTMALKSKEKKVEELNSEIEKLSAAFAKAREALQKAQTQEFQGSEDYETALSGKEALSAALRSQNLTKSTENHRLRRSIKKITQELSDLQQERERLEKDLEEAHREKSKGDCTIRDLRNEVEKLRNEVNEREKAMENRYKSLLSESNKKLHNQEQVIKHLTESTNQKDVLLQKFNEKDLEVIQQNCYLMAAEDLELRSEGLITEKCSSQQPPGSKTIFSKEKKQSSDYEELIQVLKKEQDIYTHLVKSLQESDSINNLQAELNKIFALRKQLEQDVLSYQNLRKTLEEQISEIRRREEESFSLYSDQTSYLSICLEENNRFQVEHFSQEELKKKVSDLIQLVKELYTDNQHLKKTIFDLSCMGFQGNGFPDRLASTEQTELLASKEDEDTIKIGEDDEINFLSDQHLQQSNEIMKDLSKGGCKNGYLRHTESKISDCDGAHAPGCLEEGAFINLLAPLFNEKATLLLESRPDLLKVVRELLLGQLFLTEQEVSGEHLDGKTEKTPKQKGELVHFVQTNSFSKPHDELKLSCEAQLVKAGEVPKVGLKDASVQTVATEGDLLRFKHEATREAWEEKPINTALSAEHRPENLHGVPGWQAALLSLPGITNREAKKSRLPILIKPSRSLGNMYRLPATQEVVTQLQSQILELQGELKEFKTCNKQLHQKLILAEAVMEGRPTPDKTLLNAQPPVGAAYQDSPGEQKGIKTTSSVWRDKEMDSDQQRSYEIDSEICPPDDLASLPSCKENPEDVLSPTSVATYLSSKSQPSAKVSVMGTDQSESINTSNETEYLKQKIHDLETELEGYQNFIFQLQKHSQCSEAIITVLCGTEGAQDGLSKPKNGSDGEEMTFSSLHQVRYVKHVKILGPLAPEMIDSRVLENLKQQLEEQEYKLQKEQNLNMQLFSEIHNLQNKFRDLSPPRYDSLVQSQARELSLQRQQIKDGHGICVISR

Molecular target: Flag-TAZ (UniProt Q9GZV5)
Experiment: co-IP; HEK293T cells co-transfected with Flag-TAZ and Myc-tagged CDK5RAP2 proteins; lysis in 10 mM Tris/HCl pH 7.4, 50 mM NaCl, 0.5% NP40; Flag-trap beads 2 h at 4 °C; blots probed with mAb 9E10 and pAb anti-Flag

**Q.** “Myc-tagged full-length CDK5RAP2 (from UniProt Q96SN8-1 1-1893)” was tested. Which binding did it give?
**A.** The binding was “binds”.

**Q.** With B1 as the molecule, how does the binding read?
**A.** Its binding is “binds”.

**Q.** With B2 as the molecule, how does the binding read?
**A.** The binding was “binds”.
